{"source": "PubChem BioAssay AID1259254 (NCATS, 2017)", "aim": "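Genome-wide screen for genes that prevent DNA re-replication in cancer cells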 (primary screen)", "system": "human HCT116 colorectal cancer cells", "knock-down reagent": "single siRNA against human genes", "timing": "3 days", "detection": "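Nuclei stained with Hoechst and imaged; cell-cycle phase assigned by DNA content; G2 share scaled per plate, non-targeting siRNA 0%, GMNN siRNA 100%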", "scale": "G2 robust z-score and G2 cells, % of GMNN control: higher = more G2 cells, more excess DNA replication", "rule for the call": "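An siRNA counts as active if its G2 robust z-score lies at least 5 MADs above the screen median; here such calls match roughly 38% of GMNN control or more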", "note": "The deposit covers about 59,000 reagents; below is a part drawn at random. Over the whole deposit, about 1,550 (2.6%) are marked active. 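G2 share is only a proxy for re-replication; each gene was hit by three separate siRNAs, and active genes were retested.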 Reagents against one gene are numbered here. Further read-outs or replicates are left out here. The record does not give: the amount of reagent."}
The first 2 entries, ahead of the listing:
{"gene": "POLDIP3 (DNA polymerase delta interacting protein 3)", "reagent no.": 1, "G2 robust z-score": -0.813, "G2 cells, % of GMNN control": -2.75, "activity call": "inactive"}
{"gene": "POLDIP3 (DNA polymerase delta interacting protein 3)", "reagent no.": 2, "G2 robust z-score": -0.505, "G2 cells, % of GMNN control": -0.588, "activity call": "inactive"}

The listing, repeating the preview:
{"gene": "POLDIP3 (DNA polymerase delta interacting protein 3)", "reagent no.": 1, "G2 robust z-score": -0.813, "G2 cells, % of GMNN control": -2.75, "activity call": "inactive"}
{"gene": "POLDIP3 (DNA polymerase delta interacting protein 3)", "reagent no.": 2, "G2 robust z-score": -0.505, "G2 cells, % of GMNN control": -0.588, "activity call": "inactive"}
{"gene": "POLDIP3 (DNA polymerase delta interacting protein 3)", "reagent no.": 3, "G2 robust z-score": 1.52, "G2 cells, % of GMNN control": 13.7, "activity call": "inactive"}
{"gene": "KRT8P3 (keratin 8 pseudogene 3)", "reagent no.": 1, "G2 robust z-score": -0.909, "G2 cells, % of GMNN control": -3.43, "activity call": "inactive"}
{"gene": "KRT8P3 (keratin 8 pseudogene 3)", "reagent no.": 2, "G2 robust z-score": -0.948, "G2 cells, % of GMNN control": -3.71, "activity call": "inactive"}
{"gene": "KRT8P3 (keratin 8 pseudogene 3)", "reagent no.": 3, "G2 robust z-score": -0.3, "G2 cells, % of GMNN control": 0.859, "activity call": "inactive"}
{"gene": "PCM1 (pericentriolar material 1)", "reagent no.": 1, "G2 robust z-score": -0.164, "G2 cells, % of GMNN control": 1.82, "activity call": "inactive"}
{"gene": "PCM1 (pericentriolar material 1)", "reagent no.": 2, "G2 robust z-score": 0.543, "G2 cells, % of GMNN control": 6.79, "activity call": "inactive"}
{"gene": "PCM1 (pericentriolar material 1)", "reagent no.": 3, "G2 robust z-score": 0.668, "G2 cells, % of GMNN control": 7.67, "activity call": "inactive"}
{"gene": "GPSM3 (G protein signaling modulator 3)", "reagent no.": 1, "G2 robust z-score": -0.442, "G2 cells, % of GMNN control": -0.143, "activity call": "inactive"}
{"gene": "GPSM3 (G protein signaling modulator 3)", "reagent no.": 2, "G2 robust z-score": 0.235, "G2 cells, % of GMNN control": 4.62, "activity call": "inactive"}
{"gene": "GPSM3 (G protein signaling modulator 3)", "reagent no.": 3, "G2 robust z-score": -0.716, "G2 cells, % of GMNN control": -2.07, "activity call": "inactive"}
